# The other results are listed elsewhere or left out. The main result of the screen is listed elsewhere. These columns were measured beside it and carry no call. The list favours compounds with an active or inconclusive main result. Words in brackets tell the shape of the fitted curve; partial curves, single points and poor fits give uncertain potencies.
# Assay: qHTS Assay for Lipid Storage Modulators in Drosophila S3 Cells;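 for cell number change: cells counted by Cell Tracker Red CMTPX staining in the red channel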
# Settings: BODIPY lipid droplet fluorescence, 18-24 h; for cell number change: measured here: cell count max response, cells fed with added oleic acid
# Summary of the method: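 Drosophila S3 cells loaded with oleic acid (400 uM, as added) and compounds at several concentrations; lipid droplets imaged by 488-nm laser-scanning cytometry, 500–530 nm intensity and object ratio to cell channel. Percent activity normalized to 20 uM Triacsin C.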
# [1] = measured here: lipid fluorescence (Fed channel) AC50, cells fed with added oleic acid
# [2] = measured here: cell number channel AC50, cells fed with added oleic acid
Compound,cell number change [%],AC50 [1],AC50 [2]
CC1(C)CC(c2nc(-c3ccc([N+](=O)[O-])cc3)cs2)CCO1 (stereo unspecified),-3.95,"4.61 µM [falling, single point]",–
Cc1cc(NC(=O)c2ccc(N3CCCC3)c([N+](=O)[O-])c2)no1,39.2,–,"14.6 µM [rising, single point]"
Cc1nn(CC(O)Cn2c3c(c4ccccc42)CCN(C)C3=O)c(C)c1Br (stereo unspecified),-19.9,–,–
COCCn1c(SCC(=O)N2CCc3ccccc3C2)nc2cc(Cl)ccc2c1=O,5.88,"6.51 µM [falling, single point]",–
CC1CCc2[nH]c3ccc(C(=O)N4CCCC(C(F)(F)F)C4)cc3c2C1 (stereo unspecified),–,–,"1.46 µM [rising, partial curve]"
Cc1cc(F)ccc1NCC(=O)Nc1ccc(Br)cc1C,-28.7,"5.8 µM [falling, full curve]",–
S=c1nccc(-c2cccs2)[nH]1,12,–,"0.731 µM [rising, full curve, poor fit]"
CN(C)C(=O)c1ccc(-c2cc(C(F)(F)F)n(C)n2)s1,11.8,"1.84 µM [rising, partial curve, poor fit]",–
COc1ccccc1N(C(=O)c1cncc(Br)c1)c1nc(-c2ccc(C)cc2)cs1,-6.71,"0.259 µM [rising, full curve, poor fit]",–
CCOC(=O)CCNCc1ccc(OC)c(OC)c1,-7.6,–,–
O=C(COC(=O)c1cccs1)Nc1cccc(S(=O)(=O)NC2=NCCCCC2)c1,34.9,–,"7.31 µM [rising, partial curve, poor fit]"
Cc1sc2ncnc(NCCCN3CCCC3=O)c2c1C,-0.611,"29.1 µM [rising, partial curve, poor fit]",–
O=C(N1CCCC1)N1CCN(c2ncnc3c(-c4ccc(Cl)cc4)nsc23)CC1,-1.09,–,–
COc1cccc(C(=O)Nc2ccccc2-c2ccccc2)c1,-38.7,"14.6 µM [falling, single point]","29.1 µM [falling, single point]"
COC(=O)C1=C(N)Oc2cc(C)n(CCN3CCOCC3)c(=O)c2C1c1cccnc1 (stereo unspecified),2.14,–,–
Oc1cccc(/C=N/Nc2ncnc3c2ncn3Cc2ccccc2)c1,27.7,"0.231 µM [falling, full curve, poor fit]",–
Cc1cccc(NC(=S)N(CCCN2CCOCC2)Cc2ccccn2)c1,2.73,"16.4 µM [rising, partial curve, poor fit]",–
C=CCn1c(SCc2c(C(=O)OC)sc(N)c2C(=O)OC)nnc1-c1ccc(Cl)cc1,41.5,"2.31 µM [rising, partial curve, poor fit]","0.146 µM [rising, full curve, poor fit]"
O=C(Nc1cccnc1)c1cc2c(ccc3ccccc32)o1,-32.5,"6.51 µM [rising, single point]","16.4 µM [falling, partial curve]"
Cc1ccc2nc(C(O)C(O)c3nc4ccc(C)cc4[nH]3)[nH]c2c1 (stereo unspecified),-41.1,–,"18.4 µM [falling, partial curve]"

Compound,cell number change [%],AC50 [1],AC50 [2]
Cc1cccc(CN2CCN(C3CCCC3)C(CCO)C2)n1 (stereo unspecified),-13.9,"4.11 µM [falling, full curve, poor fit]","7.31 µM [falling, single point]"
C=CCNC(=S)N1CCC(C(=O)c2ccc3c(c2)OCCO3)CC1,7.59,"0.326 µM [rising, partial curve, poor fit]",–
O=C(Nc1ccc2c(c1)OCO2)c1ccc(Cl)c(S(=O)(=O)N2CCOCC2)c1,10.4,"29.1 µM [rising, single point]","6.51 µM [rising, single point]"
CCN(CC)S(=O)(=O)c1ccc(N2CCN(C)CC2)c(NC(=O)c2cc(=O)c3ccccc3o2)c1,-12.4,–,–
COc1cc(-c2nc(-c3ccncc3)no2)cc(OC)c1OC,–,"0.259 µM [rising, partial curve, poor fit]",–
CCN(CC)S(=O)(=O)c1cc(NC(=O)[C@@H](NC(N)=O)C(C)C)ccc1C,90.1,"20.6 µM [rising, single point]","29.1 µM [rising, single point]"
FC(F)(F)c1cc(-c2ccco2)nc2ncnn12,10.9,"0.00461 µM [falling, full curve, poor fit]",–
S=C(NCc1ccc(Cl)cc1)Nc1ccccc1,24.2,"5.8 µM [rising, partial curve, poor fit]",–
O=C(/C=C/c1ccc(Cl)cc1)c1cccnc1,–,"5.8 µM [falling, partial curve]",–
CCN1CCN(C(=O)CN(Cc2ccccc2)S(C)(=O)=O)CC1,5.12,"0.231 µM [falling, full curve, poor fit]",–
Cn1cccc1/C=N/NC(=O)c1cc(-c2cccs2)nc2ccccc12,0.804,"0.651 µM [rising, full curve, poor fit]","0.92 µM [rising, full curve, poor fit]"
CNC(=O)CCC(=O)Nc1ccc(C)cc1,5.57,"6.51 µM [falling, single point]",–
COc1ccc(NC(=O)CN(C)C(=O)c2cc(-c3ccco3)nc3ccccc23)cc1,-18.9,"2.31 µM [falling, partial curve, poor fit]",–
Cc1cccc(C(C)(C)C)c1OCCCCN1CCCC1,-32.5,"29.1 µM [falling, single point]","29.1 µM [falling, single point]"
COc1ccc(C)cc1NC(=O)CSc1nnnn1Cc1ccccc1,–,–,"2.59 µM [rising, partial curve]"
CCOc1ccc(-c2c(C(=O)N/N=C/C3CCCCC3)nnn2-c2nonc2N)cc1,-2.09,"20.6 µM [rising, single point]",–
CC1CCN(c2nc3c(=O)[nH]c(N)nc3n2[C@@H]2O[C@H](CO)[C@@H](O)[C@H]2O)CC1,8.5,–,–
CCCc1cc(=O)oc2cc(OC(C)C(=O)NC3CC(C)(C)NC(C)(C)C3)ccc12 (stereo unspecified),43.2,"29.1 µM [rising, single point]","10.3 µM [rising, partial curve, poor fit]"
O=C(Nc1ccc2c(c1)N(S(=O)(=O)c1cccs1)CCC2)c1c(F)cccc1Cl,14.4,"13 µM [rising, partial curve]",–
O=C1Nc2ccc(S(=O)(=O)N3CCCCCC3)c3cccc1c23,–,"0.731 µM [rising, partial curve]","0.731 µM [rising, partial curve]"

# Reformatted with tabs: entries from further up.
Compound	cell number change [%]	AC50 [1]	AC50 [2]
S=C(NCc1ccc(Cl)cc1)Nc1ccccc1	24.2	5.8 µM [rising, partial curve, poor fit]	–
CNC(=O)CCC(=O)Nc1ccc(C)cc1	5.57	6.51 µM [falling, single point]	–
COc1ccc(NC(=O)CN(C)C(=O)c2cc(-c3ccco3)nc3ccccc23)cc1	-18.9	2.31 µM [falling, partial curve, poor fit]	–

# Next compounds

Compound,cell number change [%],AC50 [1],AC50 [2]
Nc1c(C(=O)OCC2CCCO2)c2nc3ccccc3nc2n1C1CCCC1 (stereo unspecified),1.92,"1.64 µM [rising, partial curve]",–
Cc1ccc(C)c(OCCC(=O)Nc2ccc(S(=O)(=O)N3CCCC3)cc2)c1,-0.0684,"0.82 µM [falling, full curve]",–
Cc1ccc(OCCCC(=O)Nc2nc3ccccc3[nH]2)cc1,32,"4.61 µM [rising, full curve, poor fit]","8.2 µM [rising, single point]"
CC(C)[C@H](NC(=O)[C@@H]1Cc2ccccc2CN1C(=O)OC(C)(C)C)C(=O)NC1CCCC1,-7.31,"29.1 µM [rising, single point]",–
O=C(Nc1ccc2snnc2c1)Nc1cccc2ccccc12,-65.4,–,–
O=C(Nc1c(Cl)cccc1Cl)C1CCN(C(=O)c2cccs2)CC1,4.7,–,–
CC(=O)Nc1ccc(-c2cc3ccccc3o2)cc1,8.2,–,–
O=C(Cc1cccc(NC(=O)C2CCCN(C(=O)CCc3ccccc3)C2)c1)Nc1cccc(C(=O)N2CCCC2)c1 (stereo unspecified),-8.9,–,–
Cn1nc(C(C)(C)C)c([N+](=O)[O-])c1C(=O)N1CCOCC1,-10.1,"29.1 µM [rising, single point]",–
CC(C)(C)c1cc[n+](C2=C([O-])c3ccccc3C(=O)/C2=N\S(=O)(=O)c2cccs2)cc1,-51,"20.6 µM [falling, partial curve]","20.6 µM [falling, single point]"
COc1ccc(C(C)(C)C)cc1NC(=O)C1CCCO1 (stereo unspecified),2.97,"29.1 µM [rising, single point]","6.51 µM [rising, single point]"
O=[N+]([O-])c1ccc(-c2cnc(SCc3ccccc3Cl)[nH]2)cc1,77.3,–,–
CN1C(=O)C(CC(=O)NC2CCCCC2)N(C)C1=O (stereo unspecified),-17.3,–,"0.731 µM [falling, full curve, poor fit]"
CC(=O)N1c2ccccc2N(Cc2ccc([N+](=O)[O-])cc2)C(=O)C1(C)C,-1.79,"6.51 µM [rising, partial curve]",–
O=C(NCc1ccco1)c1cc2cc(Br)ccc2o1,31.5,"29.1 µM [rising, single point]","0.231 µM [rising, full curve, poor fit]"
Cc1cc(C)c(-n2c(O)c(C=NCCN3CCOCC3)c(=O)[nH]c2=O)c(C)c1,15.2,"29.1 µM [rising, single point]",–
COC(=O)c1cn(NC(=O)Cc2ccc(OC)c(OC)c2)c(=O)c2ccccc12,41.4,"18.4 µM [falling, single point]","20.6 µM [rising, single point]"
Cc1sc(NC(=O)CCCC(=O)O)c(C(N)=O)c1-c1ccccc1,11.5,"2.91 µM [falling, partial curve]","4.11 µM [falling, single point]"

# From PubChem BioAssay AID2685 (National Center for Advancing Translational Sciences (NCATS), 2010)
